# Test results: the supplement of paper PMC8728848
# The list shows a part of the results.
# B1: FliC (Clostridium difficile) (protein)
# chain: MRVNTNVSALIANNQMGRNVNGQSKSMEKLSSGVRIKRAADDAAGLAISEKMRAQIKGLDQAGRNVQDGISVVQTAEGSLEETGNILQRMRTLSLQSANEINNTEEREKIADELTQLKDEIERISSSTEFNGKKLLDGTSSTIRLQVGASYGTNVSGTSNNNNEIKIQLVNTASIMASAGITTASIGSMKAGGTTGTDAAKTMVSSLDAALKSLNSSRAKLGAQQNRLESTQNNLNNTLENVTAAESRIRDTDVASEMVNLSKMNILVQASQSMLAQANQQPQGVLQLLG
# Key:
# Test in all cases: glycan array binding signal (z-score within array); higher = stronger binding
# Conditions in all cases: glycan notation: IUPAC condensed, linker removed
# Fuc(a1-2)Gal = target: Fuc(a1-2)Gal
# In short: (§1)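 Glycan array binding is given as a within-array Z-score, which can be read as non-binding when negative. The arrays, 3228 of them, came from the Consortium for Functional Glycomics database and were retained only where the protein sequence was available. Z-scores were averaged across arrays of the same protein sequence at different concentrations or buffers and across linkers.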
# Fuc(a1-2)Gal(b1-3)GalNAc = target: Fuc(a1-2)Gal(b1-3)GalNAc
# In short: as §1
# [1] = target: Fuc(a1-2)Gal(b1-3)GalNAc(a1-3)[Fuc(a1-2)]Gal(b1-4)Glc
# In short: as §1
# [2] = target: Fuc(a1-2)Gal(b1-3)GalNAc(a1-3)[Fuc(a1-2)]Gal(b1-4)GlcNAc
# In short: as §1
# [3] = target: Fuc(a1-2)Gal(b1-3)GalNAc(b1-3)Gal
# In short: as §1
# [4] = target: Fuc(a1-2)Gal(b1-3)GalNAc(b1-3)Gal(a1-4)Gal(b1-4)Glc
# In short: as §1
# [5] = target: Fuc(a1-2)Gal(b1-3)GalNAc(b1-4)[Neu5Ac(a2-3)]Gal(b1-4)Glc
# In short: as §1
# Fuc(a1-2)Gal(b1-3)GlcNAc = target: Fuc(a1-2)Gal(b1-3)GlcNAc
# In short: as §1
# [6] = target: Fuc(a1-2)Gal(b1-3)GlcNAc(b1-2)Man(a1-3)[Fuc(a1-2)Gal(b1-3)GlcNAc(b1-2)Man(a1-6)]Man(b1-4)GlcNAc(b1-4)GlcNAc
# In short: as §1
# [7] = target: Fuc(a1-2)Gal(b1-3)GlcNAc(b1-2)Man(a1-3)[Fuc(a1-2)Gal(b1-3)GlcNAc(b1-2)Man(a1-6)]Man(b1-4)GlcNAc(b1-4)[Fuc(a1-6)]GlcNAc
# In short: as §1
# [8] = target: Fuc(a1-2)Gal(b1-3)GlcNAc(b1-3)Gal(b1-4)Glc
# In short: as §1
# [9] = target: Fuc(a1-2)Gal(b1-3)GlcNAc(b1-3)GalNAc
# In short: as §1
# [10] = target: Fuc(a1-2)Gal(b1-3)GlcNAc(b1-3)[Fuc(a1-2)Gal(b1-3)GlcNAc(b1-6)]GalNAc
# In short: as §1
# [11] = target: Fuc(a1-2)Gal(b1-3)GlcNAc(b1-3)[Gal(b1-4)GlcNAc(b1-6)]Gal(b1-4)Glc
# In short: as §1
# [12] = target: Fuc(a1-2)Gal(b1-3)GlcNAc(b1-3)[Neu5Ac(a2-6)Gal(b1-4)GlcNAc(b1-6)]Gal(b1-4)Glc
# In short: as §1
# [13] = target: Fuc(a1-2)Gal(b1-3)GlcNAc6S
# In short: as §1
# [14] = target: Fuc(a1-2)Gal(b1-3)[Fuc(a1-4)]GlcNAc
# In short: as §1
# [15] = target: Fuc(a1-2)Gal(b1-3)[Fuc(a1-4)]GlcNAc(b1-2)Man(a1-3)[Fuc(a1-2)Gal(b1-3)[Fuc(a1-4)]GlcNAc(b1-2)Man(a1-3)]Man(b1-4)GlcNAc(b1-4)GlcNAc
# In short: as §1
# [16] = target: Fuc(a1-2)Gal(b1-3)[Fuc(a1-4)]GlcNAc(b1-2)Man(a1-3)[Fuc(a1-2)Gal(b1-3)[Fuc(a1-4)]GlcNAc(b1-2)Man(a1-6)]Man(b1-4)GlcNAc(b1-4)[Fuc(a1-6)]GlcNAc(b1-4)[Fuc(a1-6)]GlcNAc
# In short: as §1
# [17] = target: Fuc(a1-2)Gal(b1-3)[Fuc(a1-4)]GlcNAc(b1-3)[Fuc(a1-3)[Gal(b1-4)]GlcNAc(b1-6)]Gal(b1-4)Glc
# In short: as §1
# [18] = target: Fuc(a1-2)Gal(b1-3)[Fuc(a1-4)]GlcNAc(b1-3)[Gal(b1-4)GlcNAc(b1-6)]Gal(b1-4)Glc
# In short: as §1
# Fuc(a1-2)Gal(b1-4)Glc = target: Fuc(a1-2)Gal(b1-4)Glc
# In short: as §1
# Fuc(a1-2)Gal(b1-4)Glc6S = target: Fuc(a1-2)Gal(b1-4)Glc6S
# In short: as §1
# Fuc(a1-2)Gal(b1-4)GlcNAc = target: Fuc(a1-2)Gal(b1-4)GlcNAc
# In short: as §1
# [19] = target: Fuc(a1-2)Gal(b1-4)GlcNAc(b1-2)Man
# In short: as §1
# [20] = target: Fuc(a1-2)Gal(b1-4)GlcNAc(b1-2)Man(a1-3)[Fuc(a1-2)Gal(b1-4)GlcNAc(b1-2)Man(a1-6)]Man(b1-4)GlcNAc(b1-4)GlcNAc
# In short: as §1
# [21] = target: Fuc(a1-2)Gal(b1-4)GlcNAc(b1-2)Man(a1-3)[Fuc(a1-2)Gal(b1-4)GlcNAc(b1-2)Man(a1-6)]Man(b1-4)GlcNAc(b1-4)[Fuc(a1-6)]GlcNAc
# In short: as §1
# [22] = target: Fuc(a1-2)Gal(b1-4)GlcNAc(b1-2)[Fuc(a1-2)Gal(b1-4)GlcNAc(b1-4)]Man(a1-3)[Fuc(a1-2)Gal(b1-4)GlcNAc(b1-2)Man(a1-6)]Man(b1-4)GlcNAc(b1-4)GlcNAc
# In short: as §1
# [23] = target: Fuc(a1-2)Gal(b1-4)GlcNAc(b1-3)Gal(b1-4)GlcNAc
# In short: as §1
# [24] = target: Fuc(a1-2)Gal(b1-4)GlcNAc(b1-3)Gal(b1-4)GlcNAc(b1-2)Man(a1-3)[Fuc(a1-2)Gal(b1-4)GlcNAc(b1-3)Gal(b1-4)GlcNAc(b1-2)Man(a1-6)]Man(b1-4)GlcNAc(b1-4)GlcNAc
# In short: as §1
binder,measurement,setting,value
B1,glycan array binding signal (z-score),Fuc(a1-2)Gal,0.477
same,glycan array binding signal (z-score),Fuc(a1-2)Gal(b1-3)GalNAc,-0.281
same,glycan array binding signal (z-score),[1],0.883
same,glycan array binding signal (z-score),[2],-0.57
same,glycan array binding signal (z-score),[3],-0.239
same,glycan array binding signal (z-score),[4],0.652
same,glycan array binding signal (z-score),[5],-0.174
same,glycan array binding signal (z-score),Fuc(a1-2)Gal(b1-3)GlcNAc,-0.085
same,glycan array binding signal (z-score),[6],1.16
same,glycan array binding signal (z-score),[7],0.279
same,glycan array binding signal (z-score),[8],-0.113
same,glycan array binding signal (z-score),[9],0.089
same,glycan array binding signal (z-score),[10],0.636
same,glycan array binding signal (z-score),[11],-0.799
same,glycan array binding signal (z-score),[12],-0.434
same,glycan array binding signal (z-score),[13],-0.565
same,glycan array binding signal (z-score),[14],-0.442
same,glycan array binding signal (z-score),[15],0.721
same,glycan array binding signal (z-score),[16],1.31
same,glycan array binding signal (z-score),[17],-0.396
same,glycan array binding signal (z-score),[18],-0.268
same,glycan array binding signal (z-score),Fuc(a1-2)Gal(b1-4)Glc,-0.639
same,glycan array binding signal (z-score),Fuc(a1-2)Gal(b1-4)Glc6S,-0.289
same,glycan array binding signal (z-score),Fuc(a1-2)Gal(b1-4)GlcNAc,0.085
same,glycan array binding signal (z-score),[19],0.651
same,glycan array binding signal (z-score),[20],0.131
same,glycan array binding signal (z-score),[21],1.2
same,glycan array binding signal (z-score),[22],-0.21
same,glycan array binding signal (z-score),[23],-0.355
same,glycan array binding signal (z-score),[24],0.257

# Another view of part of the listing above.
binder	measurement	setting	value
B1	glycan array binding signal (z-score)	Fuc(a1-2)Gal(b1-3)GalNAc	-0.281
same	glycan array binding signal (z-score)	[5]	-0.174
same	glycan array binding signal (z-score)	Fuc(a1-2)Gal(b1-3)GlcNAc	-0.085
same	glycan array binding signal (z-score)	[9]	0.089
same	glycan array binding signal (z-score)	[14]	-0.442
same	glycan array binding signal (z-score)	[15]	0.721
same	glycan array binding signal (z-score)	[20]	0.131
same	glycan array binding signal (z-score)	[24]	0.257
